Reference: article PMC8348959
For at least one entry, the source does not settle the construct or the ends of the probe. For some assays here: At least one verdict was read from the data and is not stated in words by the source. Protein sequences can lack the tags named with them.

What was measured:
[1] = target: T1, sclerostin (mouse) (Mus musculus) (UniProt Q99P68); test: not stated (cited); conditions: TBS: 50 mM Tris-Cl pH 7.5, 150 mM NaCl, room temperature, 1 h; BSA-preblocked Ni2+-coated 96-well plate; recombinant protein; label: 3' FAM; single-stranded …
T1 sequence (looked up, limits assumed): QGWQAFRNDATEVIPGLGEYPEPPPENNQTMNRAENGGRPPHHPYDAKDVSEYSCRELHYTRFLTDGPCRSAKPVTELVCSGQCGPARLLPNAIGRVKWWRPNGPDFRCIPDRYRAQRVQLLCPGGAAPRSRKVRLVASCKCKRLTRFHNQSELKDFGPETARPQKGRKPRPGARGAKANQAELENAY

[2] = target: T2, sclerostin (recombinant human) (Homo sapiens) (UniProt Q9BQB4); test: fluorescence plate binding assay (immobilized protein, washed); conditions: 500 nM aptamer, no compound (aptamer-only control); TBS: 50 mM Tris-Cl pH 7.5, 150 mM NaCl, room temperature, 1 h; BSA-preblocked Ni2+-coated 96-well plate; commercial protein; protein details: N-terminal His; label: 3' FAM; single-stranded DNA
T2 sequence (looked up, limits assumed): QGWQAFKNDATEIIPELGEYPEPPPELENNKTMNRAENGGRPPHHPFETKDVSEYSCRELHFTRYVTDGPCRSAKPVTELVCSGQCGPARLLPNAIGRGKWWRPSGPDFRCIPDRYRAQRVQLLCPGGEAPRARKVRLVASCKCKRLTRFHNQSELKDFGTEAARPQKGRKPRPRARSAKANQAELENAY

TTGCGCGTTAATTGGGGGGGTGGGTGGGTT [sclerostin-specific DNA aptamer]
Kd [1]: 670 nM
binding result [2]: binds
